{
  "sequences": {"note": "The chains behind the UniProt entries cited, without tags or fusion partners.", "UniProt Q0JBA9, entry or part of it": "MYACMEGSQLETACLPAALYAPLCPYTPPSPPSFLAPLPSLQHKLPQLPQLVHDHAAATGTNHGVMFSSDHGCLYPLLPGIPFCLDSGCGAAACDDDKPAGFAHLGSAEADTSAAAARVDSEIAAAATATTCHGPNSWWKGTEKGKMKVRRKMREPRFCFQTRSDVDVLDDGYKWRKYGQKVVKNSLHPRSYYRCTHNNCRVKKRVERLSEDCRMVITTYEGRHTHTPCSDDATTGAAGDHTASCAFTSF"},
  "source": "paper PMC7819943",
  "about": "“Rice protein-binding microarrays: a tool to detect cis-acting elements near promoter regions in rice”",
  "note": "This is one part of the list.",
  "data": [
    {"target": "OsWRKY34 (Oryza sativa, UniProt Q0JBA9 1-250)", "test": "protein-binding microarray (RPBM); PBS, 2% BSA, 51.3 ng/ul salmon testes DNA, 50 uM zinc acetate, 200 nM TF, 25 C, 1 h; high values mean tight binding", "details": "protein: recombinant; tags: N-terminal polyhistidine and DsRed monomer fusion (pET32a); label: CyDye5-dUTP incorporated in the synthesized complementary strand; 3' TTTTT single-stranded linker to array surface; dsDNA, one strand shown", "how_it_was_run": "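Binding signal is reported as fluorescence intensity per feature (arbitrary units) from an Axon 4000B scanner. Incubation used 200 nM of each Ni–NTA-purified, N-terminally polyhistidine- and DsRed-fused transcription factor from E. coli BL21-CodonPlus on a double-stranded custom Agilent array for 1 h at 25 °C, with 50 µM zinc acetate in the buffer, followed by washing.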", "values": [
      {"sequence": "TCCCATCTTTCCATCCCAATCTCAATCTCCTACCCTTTTACGGAGTCACCTAGTGCAG", "binding signal": "8230 fluorescence intensity (a.u.)"},
      {"sequence": "GCGGTTGGAGGAAGACGACGTCACCCACCTTTTCCCCTTTCGGAGTCACCTAGTGCAG", "binding signal": "8030 fluorescence intensity (a.u.)"},
      {"sequence": "ACGGAAACACCCTATTAATAAAATCTGTTTTATTTTTTATCGGAGTCACCTAGTGCAG", "binding signal": "8280 fluorescence intensity (a.u.)"},
      {"sequence": "ATCCTCGCTGCCCTTCTCCACTGTTTCTCCATCGCCGGCTCGGAGTCACCTAGTGCAG", "binding signal": "10300 fluorescence intensity (a.u.)"},
      {"sequence": "TACTTTCTTGCAACCATCCATCCTCGCCGTCTCCAATTCCCGGAGTCACCTAGTGCAG", "binding signal": "8510 fluorescence intensity (a.u.)"},
      {"sequence": "CCACCACTCATCACATCTCACACTCATTGCCTCTTTCTTCCGGAGTCACCTAGTGCAG", "binding signal": "11100 fluorescence intensity (a.u.)"},
      {"sequence": "CCTTCGTGTTACGTACCACCCTAAAACCCACAAAATCTCCCGGAGTCACCTAGTGCAG", "binding signal": "8510 fluorescence intensity (a.u.)"},
      {"sequence": "ACATGCTCTCTAAGTTTCTCAACGGTGCGTTTCACATTTCCGGAGTCACCTAGTGCAG", "binding signal": "9010 fluorescence intensity (a.u.)"},
      {"sequence": "AATCTGTTTTTGTCTGGTGTGAATATCAATGGCATGCTCTCGGAGTCACCTAGTGCAG", "binding signal": "8590 fluorescence intensity (a.u.)"},
      {"sequence": "ATCCCATCCACTCCTCGATCTCCTCGTACGCCTATAAAATCGGAGTCACCTAGTGCAG", "binding signal": "9660 fluorescence intensity (a.u.)"},
      {"sequence": "AATCATTCCTTTTTTTACTCTTCATACCATCCATATTTATCGGAGTCACCTAGTGCAG", "binding signal": "10100 fluorescence intensity (a.u.)"},
      {"sequence": "GATATTTTGCTTGTATTGTTCGACCACTCGTCTTATTAAACGGAGTCACCTAGTGCAG", "binding signal": "8040 fluorescence intensity (a.u.)"},
      {"sequence": "ATCGAAATGGGGTTTTCTTTTTTTCTTTTTTTTTTCCTTTCGGAGTCACCTAGTGCAG", "binding signal": "10600 fluorescence intensity (a.u.)"},
      {"sequence": "TGTTTCTCTGTATGCTTCTAAACTGCGGCAGATTTTTTTTCGGAGTCACCTAGTGCAG", "binding signal": "8140 fluorescence intensity (a.u.)"},
      {"sequence": "ACGCTTGGTGGGGTGGGGTGGTGCTGGTGCCATGAACTGCCGGAGTCACCTAGTGCAG", "binding signal": "22300 fluorescence intensity (a.u.)"},
      {"sequence": "CCCTGTCCCACGTGCCATTTGACATCCACCAGACGGGTTCCGGAGTCACCTAGTGCAG", "binding signal": "8980 fluorescence intensity (a.u.)"},
      {"sequence": "CTTTTCTCATCCCTTTTGTTTCTTCACTCCGGCTCACCGCCGGAGTCACCTAGTGCAG", "binding signal": "8230 fluorescence intensity (a.u.)"},
      {"sequence": "CGCGTCCGAGAATAGCCACAGCCACCCCGCGCGCAACGCCCGGAGTCACCTAGTGCAG", "binding signal": "8640 fluorescence intensity (a.u.)"},
      {"sequence": "AAAAATGTTCCAATCAAGCCTTAACGTGTGTTTTATAGTCCGGAGTCACCTAGTGCAG", "binding signal": "8510 fluorescence intensity (a.u.)"},
      {"sequence": "ACAACCCCACATGTCAGTCATCCTAATCTCAACCTTTTTTCGGAGTCACCTAGTGCAG", "binding signal": "8180 fluorescence intensity (a.u.)"},
      {"sequence": "ATGAGTTATTCAACTTTGGTTTTCTTGACTTTTTCATTTGCGGAGTCACCTAGTGCAG", "binding signal": "8510 fluorescence intensity (a.u.)"},
      {"sequence": "TTTTCAAGTTATCAGGTGTGATCCTATCCTGCTCAATTGTCGGAGTCACCTAGTGCAG", "binding signal": "8230 fluorescence intensity (a.u.)"},
      {"sequence": "GTCCCCATCATCCCATGGTCCCACGCCCGACGCTGTAGCTCGGAGTCACCTAGTGCAG", "binding signal": "8560 fluorescence intensity (a.u.)"},
      {"sequence": "GGCACATGAATCATTTCTTTCTATATAAGTACAATCCACTCGGAGTCACCTAGTGCAG", "binding signal": "8620 fluorescence intensity (a.u.)"},
      {"sequence": "CGCCCATGGACCGGTTCTAGCGTTGGTATGGAGAGCTTCCCGGAGTCACCTAGTGCAG", "binding signal": "8620 fluorescence intensity (a.u.)"},
      {"sequence": "CACGTCGCGTCCCACCACGTCTCTCTCTCCTACTGTTTTCCGGAGTCACCTAGTGCAG", "binding signal": "10500 fluorescence intensity (a.u.)"},
      {"sequence": "TCCTTTCATCTCTTCTTCTGTGTGTGCGTGTCTGCGAAGCCGGAGTCACCTAGTGCAG", "binding signal": "11400 fluorescence intensity (a.u.)"},
      {"sequence": "TTTTGTGCTTAACACCATATTATGAAACTTTCATCATTTCCGGAGTCACCTAGTGCAG", "binding signal": "9120 fluorescence intensity (a.u.)"},
      {"sequence": "CATTTTTAACCCCTACTACTTGCCGCACCTTGTGACCATTCGGAGTCACCTAGTGCAG", "binding signal": "8970 fluorescence intensity (a.u.)"},
      {"sequence": "CTGGTCATTGTGTCTATGGATGGTGGGGTTCTCAGCTTCACGGAGTCACCTAGTGCAG", "binding signal": "12700 fluorescence intensity (a.u.)"},
      {"sequence": "CTCGCGCGCCCCGCCCGTTTCGCCTCGGCCGCCTCCTCCACGGAGTCACCTAGTGCAG", "binding signal": "8480 fluorescence intensity (a.u.)"},
      {"sequence": "CCTCGACCACAAGCACTGCTTCAACTGTTTCAACTTCATACGGAGTCACCTAGTGCAG", "binding signal": "12000 fluorescence intensity (a.u.)"},
      {"sequence": "CCACTGACCACTGTCGCCATTGTCGCCAAGAGCTTAGAGCCGGAGTCACCTAGTGCAG", "binding signal": "9450 fluorescence intensity (a.u.)"},
      {"sequence": "ATCAGTCCTACTTAATTACCAGGCCACACTCAACCTTTTTCGGAGTCACCTAGTGCAG", "binding signal": "9730 fluorescence intensity (a.u.)"},
      {"sequence": "CGCCGCCTCCGCTCCACTCTCCTCGCCGTCGCCGGTCCTCCGGAGTCACCTAGTGCAG", "binding signal": "11500 fluorescence intensity (a.u.)"},
      {"sequence": "AGCTTCCTCCGTTTTTTTCTTTCTTTCTTTCTTTTTTTTTCGGAGTCACCTAGTGCAG", "binding signal": "11800 fluorescence intensity (a.u.)"},
      {"sequence": "ACCGATCTCTCTCGCGCGCGCGCGTGCCGCTCTTGCACTACGGAGTCACCTAGTGCAG", "binding signal": "8192 fluorescence intensity (a.u.)"},
      {"sequence": "TTGACTCAACATATGGTTAGTAACCATCGTTCCAATTTATCGGAGTCACCTAGTGCAG", "binding signal": "8140 fluorescence intensity (a.u.)"},
      {"sequence": "GGAAAACTTGCTGCCGAACACAGCTCTTCTAGTTTCTCATCGGAGTCACCTAGTGCAG", "binding signal": "9750 fluorescence intensity (a.u.)"},
      {"sequence": "CTCCTTTTGCGCTGCTTCTCCTCGCCGCCACCGTGTAGCGCGGAGTCACCTAGTGCAG", "binding signal": "8230 fluorescence intensity (a.u.)"},
      {"sequence": "AGGAAGCCATCCTCTCTGGATCTCTGCTTGTGCTACTGTACGGAGTCACCTAGTGCAG", "binding signal": "8270 fluorescence intensity (a.u.)"},
      {"sequence": "AAGCACATCAAACTTATAGCCATATTAAAGCCCACTTTTTCGGAGTCACCTAGTGCAG", "binding signal": "8450 fluorescence intensity (a.u.)"}
    ]}
  ]
}
